Test results: patent US20200168293A1 (UCB, published 2020)
No constants are given. Whether binding was seen depends on the method and setting. Some entries that bind do so weakly or less than the wild type.

Chains of the proteins cited; added tags and fusions are not shown. Lines headed by an entry give the natural chain unless they say otherwise; changes in a name come on top.
UniProt Q14145: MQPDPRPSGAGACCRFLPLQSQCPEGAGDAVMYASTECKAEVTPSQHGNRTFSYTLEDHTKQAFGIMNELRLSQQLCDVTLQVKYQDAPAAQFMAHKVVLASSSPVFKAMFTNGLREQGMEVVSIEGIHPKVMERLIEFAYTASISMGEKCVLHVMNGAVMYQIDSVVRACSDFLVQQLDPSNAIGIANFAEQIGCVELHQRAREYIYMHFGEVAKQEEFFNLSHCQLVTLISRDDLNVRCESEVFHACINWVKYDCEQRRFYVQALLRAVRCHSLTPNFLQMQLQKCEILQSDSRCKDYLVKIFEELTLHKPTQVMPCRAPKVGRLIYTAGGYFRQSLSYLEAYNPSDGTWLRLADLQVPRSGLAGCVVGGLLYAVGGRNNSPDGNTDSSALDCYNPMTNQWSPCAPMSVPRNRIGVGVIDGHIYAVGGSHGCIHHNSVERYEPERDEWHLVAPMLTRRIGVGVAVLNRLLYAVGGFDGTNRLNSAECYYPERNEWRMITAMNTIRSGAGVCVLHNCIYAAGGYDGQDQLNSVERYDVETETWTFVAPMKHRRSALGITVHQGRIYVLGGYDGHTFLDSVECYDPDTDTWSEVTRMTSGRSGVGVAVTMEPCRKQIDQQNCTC

Assays:
[1] = target: Keap1 (Kelch 1-6 domains, AA 314-611) (Homo sapiens (Human)) (UniProt Q14145); assay: SPR competition, Nrf2 peptide titrated against constant Keap1 over captured G54.1 or G85 Fab
[2] = target: Keap1 (Kelch 1-6 domains, AA 314-611) (Homo sapiens (Human)) (UniProt Q14145); assay: SPR competition: Nrf2 peptide titrated (0-1000 nM) against 100 nM Keap1, binding to captured Fab G54.1 is blocked
[3] = target: Keap1 (Kelch 1-6 domains, AA 314-611) (Homo sapiens (Human)) (UniProt Q14145); assay: SPR competition: Nrf2 peptide titrated (0-3162 nM) against 100 nM Keap1, binding to captured Fab G85 is blocked

Measured: binding

LQLDEETGEFLPIQ (N-terminal biotin-PEG; C-terminal amide) [Nrf2 peptide analogue biotin-PEG-…-amide]
binds: [1] | [2] | [3]
